Data on two substances can be found in PMC5374433 (Pharmaceuticals, 2017).

A short description of this data set: general procedure: Fmoc solid-phase peptide synthesis; Fmoc-Leu-Wang resin; PyBOP/HOBt/DIPEA; HATU/DIPEA.

Some peptides are written in HELM: one residue between dots, names in brackets for other building blocks, links after the first $. Bounds are passed on as bounds.

“PEPTIDE1{[Nle6Trz].[NLys].K.P.Y.[Tle].L}|PEPTIDE2{[Nle6Trz].[NLys].K.P.Y.[Tle].L}|PEPTIDE3{[Nle6Trz].[NLys].K.P.Y.[Tle].L}|CHEM1{[TRAPam3]}$PEPTIDE1,CHEM1,1:R3-1:R1|PEPTIDE2,CHEM1,1:R3-1:R2|PEPTIDE3,CHEM1,1:R3-1:R3$$$V2.0”: for the setting “conjugation step, 220 nm”, the “final HPLC purity” value is greater than 95%. Where the note is “conjugation step, on TRAP(alkyne)3”, this substance came in with a conjugation yield of 42%.
For H-Nle(6-N3)-NLys-Lys-Pro-Tyr-Tle-Leu-OH, the “final HPLC purity” value (whole synthesis, analytical HPLC) is greater than 99%.
